| SMILES | logD (pH 13.0) | logP |
| --- | --- | --- |
| C1CN=C2CCCN2C1 | -0.17 | – |
| NC(=O)NNc1ccccc1 | – | 0.13 |

— the SangsterLogP compilation
